Laboratory results from PMC13168374, “Reversible DNA condensation drives natural transformation”.

Target: ComEA LL ins19aa,after,143 (Geobacillus stearothermophilus) (UniProt A0A0K9HI54)
Assay: fluorescence polarization
Details: Kd within error of ComEA, Hill >1, value in Fig. 5c only; FP: 20 mM Tris-HCl pH 7.5, 200 mM KCl, 80 nM DNA, ~20 C (spin at 20 C; read temperature not stated); optical tweezers 23 +/- 1 C; recombinant protein; residues 60-207; label: 3'-fluorescein (36-FAM) on strand 1

Sequence: GCACTGTGAATATCACTACAGCAACCTTGA (double strand) [30 bp DNA duplex]
- binding result: binds

The exact form of at least one protein or probe is not confirmed.
